This note sets out measurements from the supplement of paper PMC12819154, “High-throughput peptide-centric local stability assay extends protein–ligand identification to membrane proteins, tissues and bacteria” (Nature Structural & Molecular Biology, 2025).

Sequences of proteins named here, by UniProt entry; tags and fusion partners are left off. A change or cut given only in a name is not applied to a line headed by its entry.
UniProt Q04637, whole entry: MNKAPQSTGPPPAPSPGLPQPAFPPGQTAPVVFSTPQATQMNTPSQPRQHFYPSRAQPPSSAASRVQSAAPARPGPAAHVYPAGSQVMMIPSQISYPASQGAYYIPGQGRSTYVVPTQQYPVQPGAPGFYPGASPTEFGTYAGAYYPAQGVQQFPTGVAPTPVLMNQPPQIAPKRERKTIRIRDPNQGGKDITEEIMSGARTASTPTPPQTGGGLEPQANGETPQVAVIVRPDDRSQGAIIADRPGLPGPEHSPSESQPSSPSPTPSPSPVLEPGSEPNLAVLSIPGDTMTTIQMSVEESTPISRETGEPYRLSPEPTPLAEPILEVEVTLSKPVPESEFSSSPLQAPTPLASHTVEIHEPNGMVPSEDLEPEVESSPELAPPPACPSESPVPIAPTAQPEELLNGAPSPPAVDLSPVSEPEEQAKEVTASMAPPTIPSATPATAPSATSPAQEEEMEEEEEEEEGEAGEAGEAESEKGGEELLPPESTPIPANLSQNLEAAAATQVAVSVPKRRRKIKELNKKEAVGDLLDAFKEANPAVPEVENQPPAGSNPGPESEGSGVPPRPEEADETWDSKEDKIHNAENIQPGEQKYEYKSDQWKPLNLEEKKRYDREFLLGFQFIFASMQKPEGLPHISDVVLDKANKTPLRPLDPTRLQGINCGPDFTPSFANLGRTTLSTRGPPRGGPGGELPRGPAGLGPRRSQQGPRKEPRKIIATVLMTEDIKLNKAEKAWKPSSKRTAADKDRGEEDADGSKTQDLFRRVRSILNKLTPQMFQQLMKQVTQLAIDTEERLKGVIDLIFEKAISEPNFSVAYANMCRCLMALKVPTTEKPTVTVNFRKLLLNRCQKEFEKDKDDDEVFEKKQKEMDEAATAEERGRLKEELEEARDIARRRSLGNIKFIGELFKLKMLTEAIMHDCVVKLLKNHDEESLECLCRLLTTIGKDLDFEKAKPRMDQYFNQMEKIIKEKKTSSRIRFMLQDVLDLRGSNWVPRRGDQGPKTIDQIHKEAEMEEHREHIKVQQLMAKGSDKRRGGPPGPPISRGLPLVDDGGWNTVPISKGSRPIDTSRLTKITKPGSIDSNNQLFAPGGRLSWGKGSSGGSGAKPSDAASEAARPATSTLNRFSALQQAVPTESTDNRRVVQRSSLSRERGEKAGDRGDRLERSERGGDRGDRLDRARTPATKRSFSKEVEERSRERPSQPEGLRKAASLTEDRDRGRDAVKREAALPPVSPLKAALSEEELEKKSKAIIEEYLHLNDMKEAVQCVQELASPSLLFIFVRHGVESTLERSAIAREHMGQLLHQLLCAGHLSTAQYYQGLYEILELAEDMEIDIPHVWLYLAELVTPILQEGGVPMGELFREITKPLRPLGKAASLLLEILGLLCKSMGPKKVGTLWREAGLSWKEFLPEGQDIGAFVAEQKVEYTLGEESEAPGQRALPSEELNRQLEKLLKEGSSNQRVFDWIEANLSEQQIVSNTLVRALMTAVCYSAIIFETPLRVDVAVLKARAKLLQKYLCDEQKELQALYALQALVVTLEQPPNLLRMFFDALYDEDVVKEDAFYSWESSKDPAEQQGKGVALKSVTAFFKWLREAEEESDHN
UniProt Q08AE8, whole entry: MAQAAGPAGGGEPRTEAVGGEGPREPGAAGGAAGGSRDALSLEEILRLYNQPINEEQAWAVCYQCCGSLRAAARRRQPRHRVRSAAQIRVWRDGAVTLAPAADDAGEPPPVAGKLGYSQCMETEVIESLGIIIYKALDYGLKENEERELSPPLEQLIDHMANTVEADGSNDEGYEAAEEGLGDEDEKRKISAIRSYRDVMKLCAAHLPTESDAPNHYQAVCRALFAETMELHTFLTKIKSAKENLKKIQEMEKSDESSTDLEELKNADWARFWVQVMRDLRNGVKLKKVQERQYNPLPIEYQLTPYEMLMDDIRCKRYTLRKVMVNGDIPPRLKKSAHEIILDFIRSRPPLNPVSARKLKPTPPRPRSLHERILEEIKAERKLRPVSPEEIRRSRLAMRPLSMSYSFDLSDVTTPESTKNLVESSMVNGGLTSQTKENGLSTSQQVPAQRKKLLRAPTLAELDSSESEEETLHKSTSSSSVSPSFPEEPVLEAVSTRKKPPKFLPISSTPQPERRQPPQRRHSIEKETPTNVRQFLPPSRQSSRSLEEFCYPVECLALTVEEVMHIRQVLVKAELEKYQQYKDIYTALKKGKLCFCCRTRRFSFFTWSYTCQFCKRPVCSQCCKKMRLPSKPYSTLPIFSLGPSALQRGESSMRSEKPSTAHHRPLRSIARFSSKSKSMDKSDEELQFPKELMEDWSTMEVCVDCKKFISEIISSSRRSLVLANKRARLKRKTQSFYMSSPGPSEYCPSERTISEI
UniProt Q04837: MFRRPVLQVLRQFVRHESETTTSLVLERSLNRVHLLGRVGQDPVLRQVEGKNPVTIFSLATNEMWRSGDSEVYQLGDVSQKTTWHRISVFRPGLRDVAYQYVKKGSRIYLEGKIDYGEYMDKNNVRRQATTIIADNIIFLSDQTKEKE
UniProt Q12824, whole entry: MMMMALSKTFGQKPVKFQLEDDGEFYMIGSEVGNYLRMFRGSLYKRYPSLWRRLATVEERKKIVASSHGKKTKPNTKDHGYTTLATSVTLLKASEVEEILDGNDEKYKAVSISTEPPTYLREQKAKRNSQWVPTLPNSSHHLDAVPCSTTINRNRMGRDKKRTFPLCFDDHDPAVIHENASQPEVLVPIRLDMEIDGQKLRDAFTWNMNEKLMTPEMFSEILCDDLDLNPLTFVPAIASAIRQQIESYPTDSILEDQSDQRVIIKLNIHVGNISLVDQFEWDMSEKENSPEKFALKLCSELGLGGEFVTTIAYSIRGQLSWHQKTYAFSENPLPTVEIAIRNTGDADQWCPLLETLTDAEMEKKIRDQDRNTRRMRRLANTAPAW
UniProt Q03468, whole entry: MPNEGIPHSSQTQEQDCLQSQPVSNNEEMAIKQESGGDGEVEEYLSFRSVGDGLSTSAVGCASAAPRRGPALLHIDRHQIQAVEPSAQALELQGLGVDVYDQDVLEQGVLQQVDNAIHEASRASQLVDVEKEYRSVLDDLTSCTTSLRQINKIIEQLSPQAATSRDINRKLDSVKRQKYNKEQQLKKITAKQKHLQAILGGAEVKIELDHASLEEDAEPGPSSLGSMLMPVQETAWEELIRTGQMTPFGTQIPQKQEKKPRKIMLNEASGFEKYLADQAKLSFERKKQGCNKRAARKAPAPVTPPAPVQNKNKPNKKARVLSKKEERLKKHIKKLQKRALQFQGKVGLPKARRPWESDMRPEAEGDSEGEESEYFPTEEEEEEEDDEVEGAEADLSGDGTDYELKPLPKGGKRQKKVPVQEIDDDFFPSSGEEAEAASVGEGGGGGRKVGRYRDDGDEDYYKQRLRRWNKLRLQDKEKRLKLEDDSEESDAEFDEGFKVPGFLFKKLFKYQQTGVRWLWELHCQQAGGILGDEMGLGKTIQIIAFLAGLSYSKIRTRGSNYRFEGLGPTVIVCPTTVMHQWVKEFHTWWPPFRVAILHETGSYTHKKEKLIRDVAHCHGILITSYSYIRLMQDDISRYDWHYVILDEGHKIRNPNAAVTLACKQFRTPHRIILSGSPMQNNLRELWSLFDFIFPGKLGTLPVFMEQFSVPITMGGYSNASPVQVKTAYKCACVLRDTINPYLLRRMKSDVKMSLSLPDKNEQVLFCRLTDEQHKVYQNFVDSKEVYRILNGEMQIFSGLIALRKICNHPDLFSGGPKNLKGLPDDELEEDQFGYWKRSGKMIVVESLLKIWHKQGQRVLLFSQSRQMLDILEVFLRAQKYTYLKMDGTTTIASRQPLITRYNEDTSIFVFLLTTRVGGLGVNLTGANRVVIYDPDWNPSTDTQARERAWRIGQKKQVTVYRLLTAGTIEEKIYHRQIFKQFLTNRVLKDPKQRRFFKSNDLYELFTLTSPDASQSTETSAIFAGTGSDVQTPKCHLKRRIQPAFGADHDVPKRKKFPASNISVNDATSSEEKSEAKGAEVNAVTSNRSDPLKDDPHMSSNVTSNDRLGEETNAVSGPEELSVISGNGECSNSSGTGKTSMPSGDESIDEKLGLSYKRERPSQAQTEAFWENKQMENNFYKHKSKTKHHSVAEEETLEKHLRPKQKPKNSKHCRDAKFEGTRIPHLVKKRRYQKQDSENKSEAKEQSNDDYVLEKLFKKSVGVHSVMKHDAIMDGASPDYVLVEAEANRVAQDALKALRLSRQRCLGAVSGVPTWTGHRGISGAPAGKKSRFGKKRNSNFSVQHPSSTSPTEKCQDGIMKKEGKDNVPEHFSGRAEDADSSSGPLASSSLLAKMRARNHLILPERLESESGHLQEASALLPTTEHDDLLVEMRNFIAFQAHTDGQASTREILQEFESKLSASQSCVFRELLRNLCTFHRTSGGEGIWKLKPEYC
UniProt Q04864: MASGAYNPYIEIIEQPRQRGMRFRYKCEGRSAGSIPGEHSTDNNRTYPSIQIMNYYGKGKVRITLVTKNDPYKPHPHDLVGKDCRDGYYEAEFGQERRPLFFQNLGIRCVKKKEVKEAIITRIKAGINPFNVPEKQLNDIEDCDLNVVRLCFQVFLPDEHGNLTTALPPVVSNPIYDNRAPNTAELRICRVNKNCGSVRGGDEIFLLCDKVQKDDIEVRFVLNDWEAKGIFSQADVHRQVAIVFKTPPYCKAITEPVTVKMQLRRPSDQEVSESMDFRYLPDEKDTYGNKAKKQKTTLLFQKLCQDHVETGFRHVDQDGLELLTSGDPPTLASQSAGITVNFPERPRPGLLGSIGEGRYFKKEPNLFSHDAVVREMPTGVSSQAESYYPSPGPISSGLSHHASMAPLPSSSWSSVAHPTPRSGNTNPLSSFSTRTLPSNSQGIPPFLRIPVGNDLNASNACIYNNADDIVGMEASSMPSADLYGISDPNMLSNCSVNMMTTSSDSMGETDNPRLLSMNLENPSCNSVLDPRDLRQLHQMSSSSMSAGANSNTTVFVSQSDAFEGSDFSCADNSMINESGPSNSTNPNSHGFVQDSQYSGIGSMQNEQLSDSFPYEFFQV
UniProt Q04917: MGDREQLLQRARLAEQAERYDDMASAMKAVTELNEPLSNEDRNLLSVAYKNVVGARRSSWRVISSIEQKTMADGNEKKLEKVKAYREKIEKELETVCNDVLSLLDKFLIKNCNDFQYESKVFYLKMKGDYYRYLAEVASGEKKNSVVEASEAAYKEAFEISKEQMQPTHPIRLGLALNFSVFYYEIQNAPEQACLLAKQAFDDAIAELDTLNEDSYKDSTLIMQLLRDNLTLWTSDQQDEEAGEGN
UniProt Q07955, whole entry: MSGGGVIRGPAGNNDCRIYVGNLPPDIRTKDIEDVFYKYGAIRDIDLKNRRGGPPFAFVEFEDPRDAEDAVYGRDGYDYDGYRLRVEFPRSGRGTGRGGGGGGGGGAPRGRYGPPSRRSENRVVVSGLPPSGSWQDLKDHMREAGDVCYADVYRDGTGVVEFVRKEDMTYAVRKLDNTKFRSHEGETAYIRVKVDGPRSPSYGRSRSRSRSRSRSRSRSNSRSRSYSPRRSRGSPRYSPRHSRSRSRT
UniProt P98171: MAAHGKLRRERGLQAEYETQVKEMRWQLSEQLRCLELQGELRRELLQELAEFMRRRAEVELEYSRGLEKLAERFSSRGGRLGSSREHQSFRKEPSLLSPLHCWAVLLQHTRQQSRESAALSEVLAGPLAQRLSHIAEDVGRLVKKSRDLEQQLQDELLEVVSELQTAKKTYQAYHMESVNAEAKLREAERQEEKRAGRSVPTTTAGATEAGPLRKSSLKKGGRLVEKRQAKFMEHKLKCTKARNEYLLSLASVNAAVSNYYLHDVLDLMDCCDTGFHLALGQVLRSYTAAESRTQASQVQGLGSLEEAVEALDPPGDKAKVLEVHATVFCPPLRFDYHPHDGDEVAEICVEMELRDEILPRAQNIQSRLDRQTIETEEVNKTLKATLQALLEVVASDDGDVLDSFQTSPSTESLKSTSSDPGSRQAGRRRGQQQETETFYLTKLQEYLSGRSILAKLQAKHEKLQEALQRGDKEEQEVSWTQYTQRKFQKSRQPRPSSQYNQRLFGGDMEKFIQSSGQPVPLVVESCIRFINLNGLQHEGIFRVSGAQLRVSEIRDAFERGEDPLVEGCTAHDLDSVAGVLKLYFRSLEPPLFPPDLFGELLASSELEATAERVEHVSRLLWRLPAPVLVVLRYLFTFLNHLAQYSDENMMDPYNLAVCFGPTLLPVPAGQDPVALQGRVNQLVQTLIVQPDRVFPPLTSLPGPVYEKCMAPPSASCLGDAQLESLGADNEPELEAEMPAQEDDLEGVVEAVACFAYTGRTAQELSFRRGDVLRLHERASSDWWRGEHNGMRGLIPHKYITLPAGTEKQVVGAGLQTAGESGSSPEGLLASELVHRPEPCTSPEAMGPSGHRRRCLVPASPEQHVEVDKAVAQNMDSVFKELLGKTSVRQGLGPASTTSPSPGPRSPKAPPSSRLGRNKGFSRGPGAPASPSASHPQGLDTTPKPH

Some of the results follow. Most values lie at the level of the controls, where differences are scatter.

Compound in this assay: Cc1nc(Nc2ncc(C(=O)Nc3c(C)cccc3Cl)s2)cc(N2CCN(CCO)CC2)n1 [dasatinib]
In words: log2 fold change of tryptic peptide abundance, ligand vs vehicle (limited proteolysis) (log2 ratio); higher = more trypsin-susceptible (destabilized). The following applies: ligand concentration: 5 uM; sample: K562 cleared lysate.
Consider “OTUD4 (peptide sequence: APPPESWNTVSGKK, peptide start residue: 331) (UniProt Q01804)”, for which the log2 fold change was -0.307.

Regarding “EIF4G1 (peptide sequence: LKMLTEAIMHDCVVK, peptide start residue: 908) (UniProt Q04637)”, the log2 fold change is 1.01.

Consider “SOX4 (peptide sequence: HMADYPDYK, peptide start residue: 100) (UniProt Q06945)”, for which the log2 fold change is -0.657. For “SPIRE1 (peptide sequence: LCAAHLPTESDAPNHYQAVCR, peptide start residue: 202) (UniProt Q08AE8)”, the log2 fold change was -0.272. Then “SSBP1 (peptide sequence: DVAYQYVK, peptide start residue: 96) (UniProt Q04837)”, with -0.128. Under “UniProt Q12824 (peptide sequence: IVASSHGKK, peptide start residue: 63)” stands -0.291; under “MAP4K2 (peptide sequence: VGAGTYGDVYK, peptide start residue: 22) (UniProt Q12851)”, -0.618. For “SOS2 (peptide sequence: LTYHMYADPNFVR, peptide start residue: 613) (UniProt Q07890)”, the log2 fold change is 0.124.

For “ACACA (peptide sequence: QVLIASHLPSYELR, peptide start residue: 1083) (UniProt Q13085)”, the log2 fold change was found to be 0.0941.

Regarding “RPL18A (peptide sequence: SGTHNMYREYR, peptide start residue: 88) (UniProt Q02543)”, the log2 fold change stood at 0.27. Under “GLO1 (peptide sequence: GFGHIGIAVPDVYSACKR, peptide start residue: 124) (UniProt Q04760)” stands 0.157. As to “ERCC6 (peptide sequence: ASQLVDVEK, peptide start residue: 123) (UniProt Q03468)”, the log2 fold change is 0.333. Then “FCHO2 (peptide sequence: NLSNEELTK, peptide start residue: 401) (UniProt Q0JRZ9)”, with 0.303; and “TFAP4 (peptide sequence: AVIVKPVR, peptide start residue: 295) (UniProt Q01664)”, with -0.374; and “COG7 (peptide sequence: TLQHIVTLLK, peptide start residue: 732) (UniProt P83436)”, with 0.501. Under “FLII (peptide sequence: EGEEATAEAEEK, peptide start residue: 963) (UniProt Q13045)” stands 0.408.

With “UniProt Q02386 (peptide sequence: YQDSVVNIQR, peptide start residue: 118)”, the log2 fold change is -0.285.

As to “REL (peptide sequence: IKAGINPFNVPEK, peptide start residue: 123) (UniProt Q04864)”, the log2 fold change is -0.442. Under “EP300 (peptide sequence: MESTETEER, peptide start residue: 1007) (UniProt Q09472)” stands -0.154; under “YWHAH (peptide sequence: GDREQLLQR, peptide start residue: 2) (UniProt Q04917)”, 0.0917; under “AKR1C1 (peptide sequence: YKPVCNQVECHPYFNQR, peptide start residue: 184) (UniProt Q04828)”, 0.128. Under “AKAP13 (peptide sequence: EKEKDSK, peptide start residue: 484) (UniProt Q12802)” stands 0.518; under “SARNP (peptide sequence: KSEDDEKLK, peptide start residue: 167) (UniProt P82979)”, -0.251; under “UniProt Q09MP3 (peptide sequence: KQKLQNDK, peptide start residue: 307)”, 0.32.

Regarding “UniProt Q07955 (peptide sequence: IYVGNLPPDIR, peptide start residue: 18)”, the log2 fold change was 0.0866.

For the target “SLC7A5 (peptide sequence: PELERPIK, peptide start residue: 423) (UniProt Q01650)”, the log2 fold change is -0.482.

Consider “UniProt Q02040 (peptide sequence: SISNWEVMER, peptide start residue: 45)”, for which the log2 fold change came out at 0.227. As for “ARHGAP4 (peptide sequence: QTIETEEVNKTLK, peptide start residue: 372) (UniProt P98171)”, the log2 fold change is 0.636. Under “CDKL1 (peptide sequence: LCDFGFAR, peptide start residue: 693) (UniProt Q00532)” stands -0.058.
